Experimental data taken from article PMC11050134, “A Complex-Type N-Glycan-Specific Lectin Isolated from Green Alga Halimeda borneensis Exhibits Potent Anti-Influenza Virus Activity” (International Journal of Molecular Sciences, 2024).

Tested on: T1, HBL40
T1 construct: gene HBL40-1; native, purified from alga; about 40 kDa dimer of 20 kDa subunits (non-reducing 40, reducing 20 kDa)
Assay: centrifugal ultrafiltration-HPLC, fluorescence detection
Format: binding, Halimeda borneensis
Conditions: 500 nM lectin (90 µL) + 300 nM PA-oligosaccharide (10 µL), 50 mM Tris-HCl pH 7.0, room temperature, 60 min; labelled compound

Substance	binding activity (%)
asialo-biantennae with core fucose [compound 3]	83%
asialo-triantennae [compound 5]	68%
